Amino acid sequences for entries named in this document (tags omitted). A change or cut given only in a name is not applied to a line headed by its entry.
UniProt Q60932: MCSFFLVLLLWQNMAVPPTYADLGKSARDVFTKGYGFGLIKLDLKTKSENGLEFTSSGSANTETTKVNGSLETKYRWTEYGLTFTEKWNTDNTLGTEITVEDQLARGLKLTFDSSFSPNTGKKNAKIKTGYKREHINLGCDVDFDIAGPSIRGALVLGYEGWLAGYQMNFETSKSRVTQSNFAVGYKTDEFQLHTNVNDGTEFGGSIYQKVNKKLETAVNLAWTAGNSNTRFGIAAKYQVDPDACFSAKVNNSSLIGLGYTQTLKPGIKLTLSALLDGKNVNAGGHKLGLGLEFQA

In publication PMC4742181:

Molecular target: voltage-dependent anion channel 1 (VDAC1) (mouse (endogenous in B16F10 and K1735M2)) (UniProt Q60932)
Experiment: co-IP; endogenous proteins; cells lysed in CHAPS buffer (20 mM Tris-HCl pH 7.5, 150 mM NaCl, 1 mM EDTA, 2% CHAPS); antibody on protein A+G Sepharose, 800 μg protein, overnight, 4°C; western blot; B16F10 and K1735M2 cells with or without paclitaxel (100 nM, 24 h); also cells expressing ATF2^T52A, Mcl-1 shRNA, Z-VAD-fmk

binding: binds weakly
B1: NOXA (protein, UniProt Q9JM54 1-103)
chain: MPGRKARRNAPVNPTRAELPPEFAAQLRKIGDKVYCTWSAPDITVVLAQMPGKSQKSRMRSPSPTRVPADLKDECAQLRRIGDKVNLRQKLLNLISKLFNLVT

No constants are given. Whether binding was seen depends on the method and setting. Binding seen in cells or lysates may run through a third protein. Binding calls can cover weak binding; strength is not graded here.
